Measurements reported in PubChem BioAssay AID602196 (INSERM, 2012)
In all, the deposit lists about 23,000 reagents; shown is an unselected part. In the full data, 455 (2%) got an active call. 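Active includes both protection and sensitisation; some change values fall well beyond the stated -50 to +50 range.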 Reagents against one gene are numbered here. Reagent sequences are not shown. Not stated in the record: the amount of reagent.

Test: 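Genes whose knock-down alters cisplatin killing of lung cancer cells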
Cell system: human A549 lung cancer cells
Reagent: siRNA pair against human genes
Duration: 48 h transfection before cisplatin; time from cisplatin to read-out not stated
Challenge: cisplatin at a dose killing half of control-siRNA cells; exact dose and duration not given
Measured: 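Shift in cisplatin death relative to control siRNA, from -50 (all cells die) to +50 (no cells die); siRNAs harmful on their own scored 0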
Direction: two-siRNA summed score (-2 to +2): higher = both siRNAs protect from cisplatin killing; -2 means both sensitise; mean protection from cisplatin (shift in death) and protection from cisplatin (shift in death), siRNA C and protection from cisplatin (shift in death), siRNA D: higher = protection from cisplatin killing
Hit rule: 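siRNAs harmful alone (LDH or WST-1) get 0; others get +1 for less and -1 for more cisplatin killing; genes are active when the two siRNAs give the same sign, summing to ±2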
Meaning of the calls: active = both siRNAs shift cisplatin killing the same way; inactive = no consistent shift, or siRNA harmful alone

target	reagent no.	two-siRNA summed score (-2 to +2)	mean protection from cisplatin (shift in death) (%)	protection from cisplatin (shift in death), siRNA C (%)	protection from cisplatin (shift in death), siRNA D (%)	Call
NWD2 (NACHT and WD repeat domain containing 2)	1	0	5.4	11.9	-1.1	inactive
OSBPL3 (oxysterol binding protein like 3)	1	1	11.9	5.5	18.2	inactive
LOC201140	1	1	10.9	-2.9	24.7	inactive
SLC10A2	1	0	-4.5	-2.8	-6.1	inactive
CFAP52 (cilia and flagella associated protein 52)	1	0	-1.4	-7.5	4.7	inactive
GFPT2 (glutamine--fructose-6-phosphate transaminase 2)	1	0	6	3.2	8.8	inactive
LOC387903	1	0	2.6	3.2	1.9	inactive
TTC1 (tetratricopeptide repeat domain 1)	1	0	4.2	4.5	3.8	inactive
LOC442454	1	0	7.5	14	0.9	inactive
TIMM17A (translocase of inner mitochondrial membrane 17A)	1	0	0.7	-13.5	14.9	inactive
LOC344165	1	1	7.8	1.5	14	inactive
CYP4F22 (cytochrome P450 family 4 subfamily F member 22)	1	0	-2.9	10.5	-16.3	inactive
OMG (oligodendrocyte myelin glycoprotein)	1	1	17.1	10.5	23.7	inactive
NT5DC3 (5'-nucleotidase domain containing 3)	1	0	11.9	13.5	10.2	inactive
MGLL (monoglyceride lipase)	1	0	-25.4	-20.4	-30.4	inactive
NGRNP3 (NGRN pseudogene 3)	1	0	8.7	1.9	15.6	inactive
ZNF585A (zinc finger protein 585A)	1	0	11	14.2	7.8	inactive
JCHAIN (joining chain of multimeric IgA and IgM)	1	0	1.8	-2.2	5.8	inactive
RGS19 (regulator of G protein signaling 19)	1	0	-5.1	-15.1	4.8	inactive
CTNS (cystinosin, lysosomal cystine transporter)	1	-1	-11	5.5	-27.4	inactive
LOC440066	1	0	4.9	-4.1	13.8	inactive
SLC16A12	1	0	5.5	-2.9	13.9	inactive
LOC387756	1	0	8.6	3.8	13.5	inactive
MMP20 (matrix metallopeptidase 20)	1	-1	-16.1	-30.4	-1.8	inactive
MRTO4 (MRT4 homolog, ribosome maturation factor)	1	0	2.6	12.9	-7.7	inactive
HCCS (holocytochrome c synthase)	1	1	11.9	9.5	14.3	inactive
PHLPP2 (PH domain and leucine rich repeat protein phosphatase 2)	1	0	2.8	3.2	2.5	inactive
TIGIT (T cell immunoreceptor with Ig and ITIM domains)	1	0	1.8	-8	11.6	inactive
LHX8 (LIM homeobox 8)	1	0	5.9	3	8.8	inactive
ZNF318 (zinc finger protein 318)	1	0	16	15	17.1	inactive
LOC442199	1	0	14.5	9.7	19.3	inactive
NHLRC2 (NHL repeat containing 2)	1	0	10.5	10.2	10.8	inactive
TUBA4B (tubulin alpha 4b)	1	0	22.9	20.5	25.3	inactive
SCNN1G (sodium channel epithelial 1 subunit gamma)	1	0	0.2	-8.8	9.2	inactive
LMTK3 (lemur tail kinase 3)	1	0	8.9	-0.2	17.9	inactive
PDCD6 (programmed cell death 6)	1	0	-4.6	-7.1	-2.1	inactive
MIB1 (MIB E3 ubiquitin protein ligase 1)	1	0	7.6	28.3	-13	inactive
TAAR8 (trace amine associated receptor 8)	1	0	0.5	4.2	-3.3	inactive
LOC441306	1	0	9.2	13	5.5	inactive
HOXB7 (homeobox B7)	1	0	9.6	6.1	13	inactive
VCY (variable charge Y-linked)	1	0	3.1	8.7	-2.6	inactive
RSPH1 (radial spoke head component 1)	1	0	-4.7	-7.9	-1.5	inactive
ZBTB6 (zinc finger and BTB domain containing 6)	1	1	16.9	13.1	20.8	inactive
ZNF789 (zinc finger protein 789)	1	1	13.5	15.2	11.8	inactive
SUSD1 (sushi domain containing 1)	1	0	6.4	1.3	11.4	inactive
CPQ (carboxypeptidase Q)	1	0	6	-5.7	17.6	inactive
PPIAP74 (peptidylprolyl isomerase A pseudogene 74)	1	0	10.3	14.2	6.4	inactive
MKRN2 (makorin ring finger protein 2)	1	0	9.5	3.8	15.2	inactive
MYO9B (myosin IXB)	1	0	9.9	17.5	2.2	inactive
LOC390777	1	1	8.4	12.3	4.4	inactive
TLE4 (TLE family member 4, transcriptional corepressor)	1	1	8.2	-3	19.4	inactive
POLR1F (RNA polymerase I subunit F)	1	0	-0.2	-7.5	7.1	inactive
RPA2 (replication protein A2)	1	0	-24.9	-44	-5.9	inactive
PLOD1 (procollagen-lysine,2-oxoglutarate 5-dioxygenase 1)	1	0	-11.8	-41.2	17.5	inactive
GGH (gamma-glutamyl hydrolase)	1	0	0.9	-2.1	3.9	inactive
BHLHE22-AS1 (BHLHE22 antisense RNA 1)	1	0	3.9	13.4	-5.6	inactive
THOC3 (THO complex subunit 3)	1	0	6.3	4.6	8	inactive
CPEB4 (cytoplasmic polyadenylation element binding protein 4)	1	0	3.8	-5.8	13.4	inactive
PIAS1 (protein inhibitor of activated STAT 1)	1	0	-0.2	-0.3	-0.2	inactive
MSL2 (MSL complex subunit 2)	1	-1	-4.3	-17.2	8.5	inactive
LOC388169	1	0	12.2	13.3	11.1	inactive
LOC399968	1	0	5.1	2.6	7.6	inactive
MT1DP (metallothionein 1D, pseudogene)	1	0	10.1	9.8	10.4	inactive
MT1DP (metallothionein 1D, pseudogene)	2	0	20.3	17.5	23.1	inactive
LOC343629	1	0	9	-0.5	18.5	inactive
PRAF2 (PRA1 domain family member 2)	1	1	10.1	12.3	7.9	inactive
LINC00299 (long independently transcribed non-coding RNA 299)	1	1	8.7	18.9	-1.6	inactive
VSIG4 (V-set and immunoglobulin domain containing 4)	1	0	0.2	-1.2	1.6	inactive
ZNF573 (zinc finger protein 573)	1	0	6.5	9.6	3.4	inactive
LOC388097	1	0	6.4	8.8	4	inactive
GUK1 (guanylate kinase 1)	1	-1	-1.8	5.7	-9.3	inactive
GSTK1 (glutathione S-transferase kappa 1)	1	0	3.2	16.1	-9.7	inactive
NETO2 (neuropilin and tolloid like 2)	1	0	-2.1	-5.3	1.1	inactive
